According to PMC9769623:
These are yes or no findings as the source states them, for the method shown. In cells and extracts the contact can be indirect. A result given as binding can be weak or reduced; the word gives no strength. Tags and fused reporters may be left off the sequences shown.

What was measured:
Sln1-Myc (C. albicans) = biological target: T1, Sln1-Myc (C. albicans) (UniProt Q5A872); test: co-IP; C. albicans cell lysates on HA or Myc antibody beads, 4°C, ≥1 h; five washes in lysis buffer (50 mM Tris-HCl pH 7.4, 150 mM KCl, 1% NP-40); Western blot with αMyc or αHA
T1 sequence: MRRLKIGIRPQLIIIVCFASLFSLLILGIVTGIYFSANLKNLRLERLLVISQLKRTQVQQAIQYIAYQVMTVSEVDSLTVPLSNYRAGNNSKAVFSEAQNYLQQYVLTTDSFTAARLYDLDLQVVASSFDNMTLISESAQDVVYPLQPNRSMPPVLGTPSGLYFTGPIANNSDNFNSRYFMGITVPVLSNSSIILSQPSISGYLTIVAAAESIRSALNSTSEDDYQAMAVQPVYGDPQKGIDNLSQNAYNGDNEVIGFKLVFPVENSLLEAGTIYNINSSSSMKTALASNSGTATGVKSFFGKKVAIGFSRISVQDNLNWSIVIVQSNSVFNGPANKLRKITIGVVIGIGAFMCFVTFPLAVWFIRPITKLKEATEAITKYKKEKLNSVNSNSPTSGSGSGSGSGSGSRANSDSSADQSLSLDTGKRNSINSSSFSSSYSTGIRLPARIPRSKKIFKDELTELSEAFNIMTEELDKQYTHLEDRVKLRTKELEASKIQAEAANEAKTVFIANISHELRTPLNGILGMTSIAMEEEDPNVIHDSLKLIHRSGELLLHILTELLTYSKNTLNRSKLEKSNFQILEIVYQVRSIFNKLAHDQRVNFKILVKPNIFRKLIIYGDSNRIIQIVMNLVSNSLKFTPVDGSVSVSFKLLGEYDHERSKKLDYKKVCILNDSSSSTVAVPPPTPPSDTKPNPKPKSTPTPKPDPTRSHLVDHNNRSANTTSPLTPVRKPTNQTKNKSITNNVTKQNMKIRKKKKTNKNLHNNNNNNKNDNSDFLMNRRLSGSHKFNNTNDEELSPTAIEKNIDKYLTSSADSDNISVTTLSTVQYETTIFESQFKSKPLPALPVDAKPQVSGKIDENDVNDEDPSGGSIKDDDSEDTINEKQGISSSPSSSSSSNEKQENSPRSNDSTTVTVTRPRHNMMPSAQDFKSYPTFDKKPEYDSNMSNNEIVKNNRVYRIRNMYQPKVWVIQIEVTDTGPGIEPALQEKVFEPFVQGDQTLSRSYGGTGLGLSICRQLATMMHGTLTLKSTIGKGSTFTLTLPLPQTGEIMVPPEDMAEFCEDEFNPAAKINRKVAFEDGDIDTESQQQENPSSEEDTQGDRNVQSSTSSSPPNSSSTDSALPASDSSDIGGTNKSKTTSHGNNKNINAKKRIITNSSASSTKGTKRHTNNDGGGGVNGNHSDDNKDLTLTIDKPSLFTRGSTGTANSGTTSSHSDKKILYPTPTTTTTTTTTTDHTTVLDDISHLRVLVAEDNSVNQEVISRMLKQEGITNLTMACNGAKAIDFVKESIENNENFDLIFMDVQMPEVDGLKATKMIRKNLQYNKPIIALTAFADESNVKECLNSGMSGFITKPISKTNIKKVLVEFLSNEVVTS

Mp65-HA (C. albicans) = biological target: T2, Mp65-HA (C. albicans) (UniProt Q59XX2); test: as above
T2 sequence: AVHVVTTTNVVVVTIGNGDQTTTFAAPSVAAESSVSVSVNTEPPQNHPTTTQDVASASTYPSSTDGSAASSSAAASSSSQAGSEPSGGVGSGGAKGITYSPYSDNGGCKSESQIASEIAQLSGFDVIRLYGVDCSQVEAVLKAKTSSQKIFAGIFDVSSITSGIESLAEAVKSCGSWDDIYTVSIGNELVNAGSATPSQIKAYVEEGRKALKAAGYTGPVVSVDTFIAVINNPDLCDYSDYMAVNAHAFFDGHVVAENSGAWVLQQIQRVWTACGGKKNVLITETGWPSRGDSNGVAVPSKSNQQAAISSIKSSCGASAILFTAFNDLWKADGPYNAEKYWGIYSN

| Substance | binding (Sln1-Myc (C. albicans)) | binding (Mp65-HA (C. albicans)) |
| --- | --- | --- |
| HA-Cyr1 (C. albicans) (enzyme) | binds |  |
| Myc-Cyr1 (C. albicans) (enzyme) |  | binds |
